Data as given in US20070031832A1.
Results are given in words; binding and its absence hold for the method and conditions named. Some entries that bind do so weakly or less than the wild type.

Sequences of proteins named here, by UniProt entry; tags and fusion partners are left off. Residues count along the entry.
UniProt P05412, residues 250-331: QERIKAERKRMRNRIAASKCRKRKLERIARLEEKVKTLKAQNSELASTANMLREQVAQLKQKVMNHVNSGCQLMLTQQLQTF

B1: Peptide 4 (peptide)
peptide: RSDYKDDDDKAYQSMFCESRFLDNASAPAMRNAKRRSEERVLCNLTVHRKHILHKITSDDLFRTAFCRNPFIFYGHKMMRMID
B2: Peptide 66 (peptide)
peptide: RSDYKDDDDKAYQSIIGAGKSTLIKALTGVYHADRGTIWLEGQAISPKNTAHAQQCRRRPCSLTWYQLMHRYRY
B3: Peptide 58 (peptide)
peptide: RSDYKDDDDKAYQSIMAVAAQQPVAFLVGRQRRRGQVGIDSGDQHLRTPLFHELCRRRPCSLAWYQLMHRYRY

What follows are binders tested against JUN1 (UniProt P05412) (assay: yeast forward two-hybrid (peptide in pDD bait, JUN1 prey), growth in the absence of uracil).

| Binder | binding |
| --- | --- |
| RSDYKDDDDKANQLPKILAGRLIFIKC [Peptide 60] | binds |
| B1 | binds |
| RSDYKDDDDKAYQSINSSPVLPENSQELSLHLKQHVTKS [Peptide 34] | binds |
| RSDYKDDDDKLYQSLLTATKELLFVAPVAKAFTSCD [Peptide 24] | binds |
| RSDYKDDDDKAYQSSTGSAAILFNFRRMGIVIIIQI [Peptide 80] | binds |
| B2 | binds |
| B3 | binds |
| SDYKDDDDKAYQSIHPRLTK [Peptide 43] | binds |
| RSDYKDDDDKAYQSIIANEEEREKNFASSKKDGSYTDLL [Peptide 8] | binds |
| RSDYKDDDDNTPHSSDGHNNP [Peptide 32] | binds |
| RSDYKDDDDKGLQGRRRQGYQSIKP [Peptide 36] | binds |
| RSDYKDDDDKAYQSIKWPM [Peptide 33] | binds |
| RSDYKDDDDKAYQSIKWPM [Peptide 79] | binds |
| RSDYKDDDDKIYSSILWGTKWCVLLVITP [Peptide 20] | binds |
